Source: US8124583B2, “Composition and method for self-assembly and mineralization of peptide-amphiphiles” (Northwestern University, priority 2002, dated 2012)

Assay: Self assembly with CaCl2 and hydroxyapatite mineralization of nanofiber gel (TEM, electron diffraction)
Assay type: physicochemical
Description: A liquid composition for the self assembly of (1) and mineralization of hydroxyapatite was prepared by dissolving […] NaH2PO4 (Aldrich) into 200 microliters of (1) at a concentration of 10 mg/ml in water. The pH of the solution was adjusted to 7.7.
The liquid composition containing (1) and NaH2PO4 was mixed with 40 micromoles of CaCl2 (Aldrich).
Samples of the gel after 2 hours, 1 day, and 5 days were mounted on carbon-coated TEM grids. TEM studies of the 1 and 5 day samples show a multi-crystalline material composed of plate like crystals˜5 nm thick and 50 to 100 nm long. The plate like crystals were similar to those observed in the mineralization experiments on the pre-assembled template.

C15H31C(O)-CCCCGGGS(P)RGD-COOH (CCCCGGGSRGD; N-terminal palmitoyl; phosphoserine) [PA 18]
thickness of plate like crystals (TEM) (1 and 5 day gel samples): ~5 nm
electron diffraction of the mineralized material (mineralized gel): matches the diffraction pattern for hydroxyapatite
